From paper PMC6377682
Changes are numbered by the printed parent chain. No constants are given. Whether binding was seen depends on the method and setting. Binding seen in cells or lysates may run through a third protein. These calls come from enrichment with a bait or labelling near it, and not all partners need be listed. Sequences can lack the tags named with a protein.

The chains behind the UniProt entries cited, without tags or fusion partners.
UniProt P62140: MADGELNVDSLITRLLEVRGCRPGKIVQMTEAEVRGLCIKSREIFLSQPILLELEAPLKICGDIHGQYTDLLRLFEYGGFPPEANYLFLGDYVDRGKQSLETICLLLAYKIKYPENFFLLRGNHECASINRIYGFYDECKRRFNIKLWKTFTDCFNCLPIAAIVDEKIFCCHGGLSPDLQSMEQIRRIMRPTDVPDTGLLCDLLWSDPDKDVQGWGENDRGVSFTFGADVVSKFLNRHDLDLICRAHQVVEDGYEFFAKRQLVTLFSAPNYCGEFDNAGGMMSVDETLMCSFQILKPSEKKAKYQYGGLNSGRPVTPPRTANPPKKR
UniProt P36873: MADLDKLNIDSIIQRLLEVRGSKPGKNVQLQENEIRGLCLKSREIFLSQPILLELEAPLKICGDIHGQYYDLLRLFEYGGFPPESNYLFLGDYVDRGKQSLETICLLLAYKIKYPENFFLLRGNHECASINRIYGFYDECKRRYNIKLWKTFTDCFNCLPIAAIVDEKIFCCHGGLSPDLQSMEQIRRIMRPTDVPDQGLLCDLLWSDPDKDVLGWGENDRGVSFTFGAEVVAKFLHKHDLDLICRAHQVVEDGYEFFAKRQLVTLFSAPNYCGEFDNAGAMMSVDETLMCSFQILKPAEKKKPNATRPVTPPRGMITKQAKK

Tests used:
[1] = molecular target: T1, Strep-HA tagged ASPP2^KVK (ASPP2^D1091K/E1092V/E1094K) (human) (UniProt Q13625); assay: affinity purification with mass spectrometry; Strep-HA tagged bait stably expressed in HEK Flp-In 293 T-REx cells; Strep-Tactin sepharose, HNN lysis buffer (50 mM HEPES pH 7.5, 150 mM NaCl, 50 mM NaF, 0.5% Igepal CA-630), biotin elution; quantitative LC-MS/MS, three biological replicates
T1 sequence: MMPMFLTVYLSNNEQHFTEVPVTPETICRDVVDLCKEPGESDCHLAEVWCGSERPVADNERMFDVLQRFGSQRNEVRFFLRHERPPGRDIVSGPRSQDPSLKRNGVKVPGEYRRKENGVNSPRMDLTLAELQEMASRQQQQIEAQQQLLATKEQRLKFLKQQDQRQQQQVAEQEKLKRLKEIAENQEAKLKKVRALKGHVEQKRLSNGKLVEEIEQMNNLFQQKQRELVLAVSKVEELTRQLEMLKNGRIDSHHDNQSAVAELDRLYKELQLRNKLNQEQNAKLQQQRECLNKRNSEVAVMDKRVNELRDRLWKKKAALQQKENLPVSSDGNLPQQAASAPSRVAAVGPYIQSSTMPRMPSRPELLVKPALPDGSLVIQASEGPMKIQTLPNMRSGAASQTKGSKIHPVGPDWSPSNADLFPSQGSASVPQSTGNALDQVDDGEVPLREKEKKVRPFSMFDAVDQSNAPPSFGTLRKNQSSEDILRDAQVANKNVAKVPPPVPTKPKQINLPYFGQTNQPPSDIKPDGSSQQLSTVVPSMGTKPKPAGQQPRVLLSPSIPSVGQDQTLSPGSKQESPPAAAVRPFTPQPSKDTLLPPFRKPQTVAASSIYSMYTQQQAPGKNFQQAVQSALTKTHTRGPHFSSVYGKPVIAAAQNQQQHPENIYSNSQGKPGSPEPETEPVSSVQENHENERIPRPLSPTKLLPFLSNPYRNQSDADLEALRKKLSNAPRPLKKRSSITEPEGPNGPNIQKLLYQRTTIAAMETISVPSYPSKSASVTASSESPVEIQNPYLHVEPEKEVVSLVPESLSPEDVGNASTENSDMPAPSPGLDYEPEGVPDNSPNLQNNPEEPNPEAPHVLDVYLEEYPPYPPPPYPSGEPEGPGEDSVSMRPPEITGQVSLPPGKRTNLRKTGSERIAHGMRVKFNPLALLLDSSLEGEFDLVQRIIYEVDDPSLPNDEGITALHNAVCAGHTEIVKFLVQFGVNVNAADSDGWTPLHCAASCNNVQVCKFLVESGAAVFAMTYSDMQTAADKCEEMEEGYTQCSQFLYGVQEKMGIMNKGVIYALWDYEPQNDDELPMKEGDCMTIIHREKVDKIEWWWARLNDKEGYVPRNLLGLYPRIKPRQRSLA

[2] = molecular target: T2, Strep-HA tagged ASPP2 (human) (UniProt Q13625); assay: as above
T2 sequence: T1 sequence with K1091D, V1092E, K1094E

binding [1] | binding [2] | Substance
binds | binds | endogenous PP1β of HEK293T cells (from UniProt P62140 1-327) (enzyme)
binds | binds | endogenous PP1γ1 of HEK293T cells (from UniProt P36873 1-323) (enzyme)
